Results from PubChem BioAssay AID493014 (National Center for Advancing Translational Sciences (NCATS), 2011).
Some of the results follow. These are further read-outs of the screen, such as a control signal, another cell line or another target. No call is given for them. Most of these compounds were active or inconclusive in the main read-out, so they are no random draw. The note in brackets gives the kind of curve behind each potency; many fits are weak.

Test: qHTS Assay to Find Inhibitors of Chronic Active B-Cell Receptor Signaling
Conditions: ABC-DLBCL IkBa-CBG/CBR reporter, luminescence ratio (green luciferase fused to IkBa over red control in TMD8 lymphoma cells), 4 h
Procedure, shortened: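 Doxycycline induced both beetle luciferases in TMD8 lymphoma cells; IKK-driven degradation limits the IkappaBalpha-fused green signal, while red luminescence normalises for cell number and nonspecific effects. Compounds tested up to 46 uM, 4 hrs.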

[1] = measured here: CBR red luminescence, cell number
[2] = measured here: IkBa-CBG green luminescence

| SMILES | AC50 [1] | AC50 [2] |
| --- | --- | --- |
| Cc1cc(NC(=O)c2cccc(C(=O)Nc3cc(C)on3)n2)no1 | 6.51 µM [falling, single point] |  |
| Cn1c(=O)[nH]c2ncccc21 | 35.5 µM [falling, single point] |  |
| O=C(NCc1cccs1)Nc1ccc(Cl)cc1 | 13 µM [falling, partial curve, poor fit] |  |
| CC(C)c1nc(CNC(=O)CCc2nnc(-c3ccsc3)o2)cs1 | 10 µM [rising, partial curve, poor fit] |  |
| Cc1cc(/C=c2/sc3nc4ccccc4n3c2=O)c(C)n1-c1ccccn1 | 3.98 µM [rising, partial curve, poor fit] |  |
| CCCCC(=O)NNC(=S)NC(=O)c1ccc([N+](=O)[O-])cc1 | 14.1 µM [rising, single point] |  |
| COc1ccc(CNC(=O)CN(Cc2ccc(Cl)cc2)S(=O)(=O)c2ccccc2)cc1 | 29.1 µM [falling, single point] |  |
| O=C(Nc1ccon1)c1cc(-c2ccccc2)nc2ccccc12 | 8.2 µM [falling, partial curve] | 2.91 µM [rising, full curve, poor fit] |
| O=C(c1ccc(COc2ccccc2[N+](=O)[O-])o1)N1CCCCC1 | 15.8 µM [rising, partial curve, poor fit] |  |
| COc1cccc(NC(=O)CN2C(=O)NC(C)(CCC(C)C)C2=O)c1 (configuration not stated) | 14.1 µM [falling, partial curve] |  |
| CCC1(c2ccccc2)NC(=O)N(CC(=O)NCCN2C(=O)S/C(=C\c3cccnc3)C2=O)C1=O (configuration not stated) | 29.1 µM [falling, single point] |  |
| COc1ccc(C(=O)Nc2ccc(N3CCN(C(=O)c4cccs4)CC3)cc2)cc1Br | 35.5 µM [falling, single point] |  |
| CCc1nnc(NC(=O)CN2CCN(S(C)(=O)=O)CC2)s1 | 14.1 µM [rising, partial curve, poor fit] |  |
| CCOc1cc(NC(=S)NC)c(OCC)cc1NC(=O)c1ccc(OC)cc1 | 22.4 µM [rising, single point] |  |
| O=C(CSc1cccs1)Nc1ccc(Cl)cc1 | 0.447 µM [rising, full curve, poor fit] |  |
| CCOC(=O)c1c(C)n(C)c2ccc(O)c(CN3CCCCC3)c12 | 6.51 µM [falling, partial curve, poor fit] |  |
| COC(=O)c1cc2c([nH]c3ccccc32)c(C)n1 | 5.62 µM [falling, partial curve, poor fit] |  |
| Cc1ccc(C(=O)N/C(=C/c2ccc(-c3cccc([N+](=O)[O-])c3)o2)C(=O)NCCCN(C)C)cc1 | 22.4 µM [falling, single point] |  |
| O=C(O)c1ccc(-n2nnnc2SCc2cccc(Br)c2)cc1 | 0.794 µM [rising, full curve, poor fit] |  |
| CCc1ccc(/C=N/NC(=O)c2cc(-c3cccc([N+](=O)[O-])c3)n[nH]2)cc1 | 17.8 µM [rising, partial curve] | 10 µM [falling, partial curve, poor fit] |
| COc1ccccc1/C=C1/SC(=S)N(C(C)C(=O)NC2C=CS(=O)(=O)C2)C1=O (configuration not stated) | 35.5 µM [falling, single point] |  |
| C=CCn1c(SCCN2CCCCC2)nc2c1c(=O)[nH]c(=O)n2C | 32.6 µM [rising, single point] |  |

An excerpt from the list above:

| SMILES | AC50 [1] | AC50 [2] |
| --- | --- | --- |
| CC(C)c1nc(CNC(=O)CCc2nnc(-c3ccsc3)o2)cs1 | 10 µM [rising, partial curve, poor fit] |  |
| Cc1cc(/C=c2/sc3nc4ccccc4n3c2=O)c(C)n1-c1ccccn1 | 3.98 µM [rising, partial curve, poor fit] |  |
| CCCCC(=O)NNC(=S)NC(=O)c1ccc([N+](=O)[O-])cc1 | 14.1 µM [rising, single point] |  |
| COc1ccc(CNC(=O)CN(Cc2ccc(Cl)cc2)S(=O)(=O)c2ccccc2)cc1 | 29.1 µM [falling, single point] |  |
| O=C(Nc1ccon1)c1cc(-c2ccccc2)nc2ccccc12 | 8.2 µM [falling, partial curve] | 2.91 µM [rising, full curve, poor fit] |

More compounds:

| SMILES | AC50 [1] | AC50 [2] |
| --- | --- | --- |
| O=C(COC(=O)c1cc(NS(=O)(=O)c2cccs2)ccc1O)Nc1ccc(F)c(F)c1F | 35.5 µM [falling, single point] |  |
| Cc1ccc(NC(=O)C/C(N)=N/O)cc1Cl | 14.1 µM [rising, single point] |  |
| Cc1ccc(-c2cc(C(=O)NCc3ccco3)no2)cc1 | 2.59 µM [falling, full curve, poor fit] |  |
| COc1ccc(C(=O)CSc2nnc(CNc3ccc(F)cc3)o2)cc1 | 35.5 µM [rising, partial curve, poor fit] |  |
| O=C(N/N=C/c1ccc2c(c1)OCO2)c1cc(-c2ccccc2Cl)nc2ccccc12 | 3.66 µM [rising, single point] |  |
| CC(=O)NCCNc1nc2c(-c3ccccc3)nnn2c2ccccc12 | 1.12 µM [falling, full curve] |  |
| CN(c1ccccc1)S(=O)(=O)c1cccc(NC(=O)c2cc3ccccc3oc2=O)c1 | 15.8 µM [falling, single point] |  |
| CCC1Oc2ccc(C)cc2N(CC(=O)N(Cc2cccnc2)Cc2cccc(F)c2)C1=O (configuration not stated) | 0.00411 µM [rising, full curve, poor fit] |  |
| O=c1c(-c2ccccc2)coc2c(CN3CCOCC3)c(O)ccc12 | 25.9 µM [rising, single point] |  |
| CCOc1ccc(C(=O)Nc2nc(C)c(C(=O)OC)s2)cc1 | 0.631 µM [falling, partial curve, poor fit] |  |
| O=C(NNC(=S)NC1CC2C=CC1C2)c1cccnc1 (configuration not stated) | 6.31 µM [rising, single point] |  |
| O=C(NC1(C(F)(F)F)N=C2SCCN2C1=O)c1cccnc1 (configuration not stated) | 5.17 µM [falling, single point] |  |
| CCOc1ccc(-n2c(SCC(=O)NCc3ccco3)nc3ccccc3c2=O)cc1 | 2.82 µM [rising, partial curve, poor fit] |  |
| COc1ccc(NC(=O)C2C3C=CC4(O3)C2C(=O)N(CCN2CCCCC2)C4C(=O)NC2CCCCC2)cc1 (configuration not stated) | 1.78 µM [rising, full curve, poor fit] |  |
| Cc1ccccc1S(=O)(=O)Cc1ccc(C(=O)NC2CCC(C)CC2)o1 (configuration not stated) | 6.31 µM [falling, single point] |  |
| Cc1ccc(/C=C/C(=O)Nc2cc(S(=O)(=O)N3CCOCC3)ccc2N2CCOCC2)cc1 | 5.8 µM [rising, partial curve, poor fit] | 25.9 µM [falling, partial curve, poor fit] |
| O=C(COC(=O)c1nc(Cl)c(Cl)c(Cl)c1Cl)NCc1ccccc1 |  | 29.1 µM [falling, single point] |
| CCOc1cccc2cc(C(=O)Nc3nccs3)c(=O)oc12 | 1 µM [rising, full curve, poor fit] |  |
| Cc1cccc(NC(=S)NC2CCCCC2)n1 | 11.2 µM [rising, single point] |  |
| O=C(CSc1ccccc1)Nc1nnc(C2CC2)s1 | 6.31 µM [rising, full curve, poor fit] |  |
| Cc1ccc(C)c(OCCC(=O)OCC(=O)NC(=O)NCc2ccccc2)c1 | 29.1 µM [falling, single point] |  |
| Cc1c(C(=O)NCCCN2CCCC2=O)oc2ccccc12 | 3.66 µM [rising, full curve, poor fit] |  |

| SMILES | AC50 [1] | AC50 [2] |
| --- | --- | --- |
| Cc1cc(C)c(-c2cc(NC(=O)COC(=O)c3ccc(CO)cc3)n(-c3ccccc3)n2)cc1C | 4.11 µM [rising, full curve, poor fit] |  |
| Cc1ccc(CNC(=O)CC(C)S(=O)(=O)c2ccc3c(c2)NC(=O)C(C)S3)cc1 (configuration not stated) | 17.8 µM [falling, partial curve, poor fit] |  |
| CCOC(=O)c1nn(-c2ccccc2)c(=O)c2c(NC(C)=O)scc12 | 0.794 µM [falling, full curve, poor fit] |  |
| O=C(Cc1ccccc1)Nc1ccccc1C(=O)NCC1CCCO1 (configuration not stated) | 0.708 µM [falling, partial curve, poor fit] |  |
| Cc1cccc(C(=O)NNC(=O)c2ccc(F)cc2)c1 | 20.6 µM [falling, single point] |  |
| CC(C)NC(=O)c1[nH]nc2c1CCc1ccccc1-2 | 7.94 µM [falling, partial curve] |  |
| Cn1c(=O)[nH]c2nc[nH]c2c1=O | 14.6 µM [falling, single point] |  |
| CC(C)NC(=O)N(C)C[C@H]1Oc2ccc(NC(=O)CCC(F)(F)F)cc2C(=O)N([C@H](C)CO)C[C@@H]1C | 29.1 µM [rising, single point] |  |
| OC1(c2ccc3ccccc3c2)CCN(Cc2ccccc2)C1 (configuration not stated) | 11.6 µM [falling, single point] |  |
| O=C(N/N=C/c1cccnc1)c1cccs1 | 35.5 µM [falling, single point] |  |
| Nn1cnnc1N/N=C/c1ccc(F)cc1 | 35.5 µM [falling, single point] |  |
| CC1CCCN(CCCNC(=O)c2coc3nc4ccccc4nc23)C1 (configuration not stated) | 8.91 µM [falling, partial curve] |  |
| Cn1c(=NC(=O)COc2ccccc2)sc2ccccc21 | 4.47 µM [falling, full curve] |  |
| CC(C)Nc1nc(-c2cccnc2)nc(-c2ccc(Cl)cc2)c1C#N | 12.6 µM [rising, single point] |  |
| O=C(N/N=C/c1ccc(F)cc1)c1ccccc1 | 6.31 µM [falling, partial curve] |  |
| C#CCOC(=O)Nc1ccc(=O)n(Cc2c(Cl)cccc2Cl)c1 | 11.2 µM [falling, partial curve, poor fit] |  |
| CCOc1ccc(NC(=O)CN2C(=O)C3CC=CCC3C2=O)cc1 (configuration not stated) | 29.1 µM [rising, single point] |  |
| O=C(CN(C(=O)CNC(=O)c1ccco1)c1ccc(F)cc1)NC1CCCCC1 | 1.26 µM [falling, partial curve] |  |
| Cc1cc(NS(=O)(=O)c2ccc(NC(=O)/C=C/c3cccc(Cl)c3)cc2)no1 | 17.8 µM [falling, partial curve, poor fit] |  |
| CCOC(=O)C1=C(CC)Nc2ccccc2N=C1NC(=O)c1ccc(S(=O)(=O)N2CCOCC2)cc1 | 0.355 µM [rising, partial curve, poor fit] |  |
